Results are given in words; binding and its absence hold for the method and conditions named. In cells and extracts the contact can be indirect. A result given as binding can be weak or reduced; the word gives no strength.
Target: PARP1–GFP stably expressed in HeLa cells (UniProt P09874)
Assay: co-IP; PARP1–GFP captured on GFP-trap beads from the chromatin fraction of HeLa cells expressing TEX264 variants, after talazoparib and MMS for 3 h

Amino acid sequences for entries named in this document (tags omitted). A change or cut given only in a name is not applied to a line headed by its entry.
UniProt P09874: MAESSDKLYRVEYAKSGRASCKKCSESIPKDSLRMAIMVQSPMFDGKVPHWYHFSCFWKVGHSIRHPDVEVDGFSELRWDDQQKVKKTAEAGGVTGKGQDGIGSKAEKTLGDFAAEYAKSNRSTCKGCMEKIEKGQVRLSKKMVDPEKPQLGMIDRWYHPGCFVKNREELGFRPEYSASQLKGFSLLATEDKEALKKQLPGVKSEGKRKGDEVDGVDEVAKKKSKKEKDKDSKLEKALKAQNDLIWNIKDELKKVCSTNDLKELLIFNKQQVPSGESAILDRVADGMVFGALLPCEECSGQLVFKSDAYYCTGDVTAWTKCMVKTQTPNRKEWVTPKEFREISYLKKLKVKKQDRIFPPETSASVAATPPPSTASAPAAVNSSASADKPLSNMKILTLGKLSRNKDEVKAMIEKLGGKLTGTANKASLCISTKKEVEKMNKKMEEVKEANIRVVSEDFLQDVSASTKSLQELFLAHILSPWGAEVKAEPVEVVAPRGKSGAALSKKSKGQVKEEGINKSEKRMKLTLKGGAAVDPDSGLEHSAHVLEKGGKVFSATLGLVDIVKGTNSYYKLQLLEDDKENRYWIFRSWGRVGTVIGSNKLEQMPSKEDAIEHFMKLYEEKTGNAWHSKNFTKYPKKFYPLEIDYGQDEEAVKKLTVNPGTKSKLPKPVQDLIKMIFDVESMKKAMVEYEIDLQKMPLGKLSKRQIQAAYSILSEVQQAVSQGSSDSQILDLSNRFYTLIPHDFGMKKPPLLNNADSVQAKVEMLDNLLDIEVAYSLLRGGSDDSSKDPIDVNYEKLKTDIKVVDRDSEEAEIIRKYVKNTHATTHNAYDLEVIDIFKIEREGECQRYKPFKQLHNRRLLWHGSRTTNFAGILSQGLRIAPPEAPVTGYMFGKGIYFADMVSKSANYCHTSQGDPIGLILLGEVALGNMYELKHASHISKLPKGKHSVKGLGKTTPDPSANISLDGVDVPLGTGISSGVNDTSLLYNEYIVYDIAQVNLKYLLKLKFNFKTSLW
UniProt Q9Y6I9: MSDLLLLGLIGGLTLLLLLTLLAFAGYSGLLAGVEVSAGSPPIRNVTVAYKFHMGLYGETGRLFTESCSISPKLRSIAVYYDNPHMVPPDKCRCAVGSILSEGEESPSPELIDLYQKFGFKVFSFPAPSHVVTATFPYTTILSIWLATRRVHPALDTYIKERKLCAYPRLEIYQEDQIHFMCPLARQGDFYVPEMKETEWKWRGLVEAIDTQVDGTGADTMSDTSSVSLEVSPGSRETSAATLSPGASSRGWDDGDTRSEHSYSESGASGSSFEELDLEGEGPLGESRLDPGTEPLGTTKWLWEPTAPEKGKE

- binding: binds
Substance: TEX264–Δα-helix (TEX264 lacking the α-helix that follows the GyrI-like domain) (from UniProt Q9Y6I9)
